# According to patent publication US20200040082A1:
# No constants are given. Whether binding was seen depends on the method and setting. For part of these data: Binding can be weak; no strength is given.
# Key:
# [1] = molecular target: cynomolgus monkey TIGIT (cynomolgus monkey); test: flow cytometry on 293-cyno TIGIT cells, 100 nM antibody
# [2] = molecular target: cynomolgus monkey TIGIT (cynomolgus monkey); test: flow cytometry on cynomolgus T cells, 20 ug/mL antibody
# [3] = molecular target: cynomolgus monkey TIGIT (cynomolgus monkey); test: flow cytometry on cynomolgus T cells
# [4] = molecular target: cynomolgus monkey TIGIT (cynomolgus monkey); test: flow cytometry on 293-cyno TIGIT cells
binding [1],binding [2],binding [3],binding [4],Binder
binds,binds,,,"Clone 27 (antibody, V domains shown) VH: QVQLVQSGAEVKKPGASVKVSCKASGYTFTSYAISWVRQAPGQGLEWMGWISAYNGNTNYAQKLQGRVTMTTDTSTSTAYMELRSLRSDDTAVYYCARDLSSFWSGDVLGAFDIWGQGTMVTVSS VL: EIVMTQSPATLSVSPGERATLSCRASQSVSSNLAWYQQKPGQAPRLLIYGASTRATGIPARFSGSGSGTEFTLTISSLQSEDFAVYYCQQHANHITFGGGTKVEIK"
,,no binding (tested: 20 ug/mL),no binding (tested: 100 nM),"Clone 18 (antibody, V domains shown) VH: QVQLVQSGAEVKKPGASVKVSCKASGYTFTSYYMSWVRQAPGQGLEWMGIINPSGGSTSYAQKFQGRVTMTRDTSTSTVYMELSSLRSEDTAVYYCARVRYGYADGMDVWGQGTTVTVSS VL: DIQMTQSPSSLSASVGDRVTITCRASQSISSYLNWYQQKPGKAPKLLIYGASSLQSGVPSRFSGSGSGTDFTLTISSLQPEDFATYYCQQVYHLPFTFGGGTKVEIK"
binds,binds,,,"Clone 22 (antibody, V domains shown) VH: QVQLQESGPGLVKPSETLSLTCAVSGYSISSGYYWAWIRQPPGKGLEWIGSIYHSGSTYYNPSLKSRVTISVDTSKNQFSLKLSSVTAADTAVYYCARQGYYYGSSGSVDFDLWGRGTLVTVSS VL: DIQMTQSPSSVSASVGDRVTITCRASQGISSWLAWYQQKPGKAPKLLIYAASNLQSGVPSRFSGSGSGTDFTLTISSLQPEDFATYYCQQANSLPPWTFGGGTKVEIK"
